Data as given in PubChem BioAssay AID1159584 (Peter MacCallum Cancer Centre, 2016).
In all, the deposit lists about 18,000 reagents; this is a random part of them. Not given: the amount of reagent, the time to read-out.

Assay: 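Genes whose loss is lethal only together with E-cadherin loss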 (primary screen)
System: human MCF10A breast epithelial cells, parental and CDH1-null
Knock-down reagent: siRNA against human genes
Measurement: 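ATP luminescence (CellTiter-Glo) viability per line relative to mean mock wells over all plates, and the ratio of CDH1-null to parental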
Reading the numbers: CDH1-null / parental viability ratio: higher = CDH1-null cells survive relatively better than parental; CDH1-null viability vs mock: higher = more viable CDH1-null cells; parental viability vs mock: higher = more viable parental cells

Target gene	CDH1-null / parental viability ratio	CDH1-null viability vs mock (fraction of mock)	parental viability vs mock (fraction of mock)
SOD1 (GeneID 6647)	1.02	1.1	1.08
TMEM44 (GeneID 93109)	0.91	0.67	0.74
GDF2 (GeneID 2658)	1.04	0.5	0.48
SLC9C2 (GeneID 284525)	0.93	0.87	0.94
FAR1 (GeneID 84188)	0.76	0.34	0.45
KIF22 (GeneID 3835)	0.9	0.77	0.86
GPHA2 (GeneID 170589)	1.23	0.86	0.7
OCLN (GeneID 100506658)	1.02	0.96	0.94
CKMT1B (GeneID 1159)	1.1	0.97	0.88
CXorf66 (GeneID 347487)	1.11	0.91	0.82
CCDC69 (GeneID 26112)	1.05	0.82	0.78
ZNF397 (GeneID 84307)	0.78	0.76	0.98
FCHO2 (GeneID 115548)	0.82	0.64	0.78
IMPA1 (GeneID 3612)	1.08	0.9	0.83
KSR1 (GeneID 8844)	1.12	0.92	0.82
OR10S1 (GeneID 219873)	0.83	0.45	0.54
TMEM179B (GeneID 374395)	0.97	0.99	1.02
CCDC6 (GeneID 8030)	1.02	0.61	0.6
NCS1 (GeneID 23413)	1.07	0.45	0.42
ABHD17B (GeneID 51104)	0.89	0.78	0.88
SLC26A10P (GeneID 65012)	1.07	0.92	0.86
PTPRE (GeneID 5791)	1.37	0.74	0.54
GINS2 (GeneID 51659)	0.75	0.48	0.64
TRAPPC12 (GeneID 51112)	1.08	0.68	0.63
RTEL1 (GeneID 51750)	1.04	1.04	1
ZNF263 (GeneID 10127)	1.29	1.34	1.04

Continued; the last 3 above are carried over.
Target gene	CDH1-null / parental viability ratio	CDH1-null viability vs mock (fraction of mock)	parental viability vs mock (fraction of mock)
TRAPPC12 (GeneID 51112)	1.08	0.68	0.63
RTEL1 (GeneID 51750)	1.04	1.04	1
ZNF263 (GeneID 10127)	1.29	1.34	1.04
ZNF226 (GeneID 7769)	1.09	0.7	0.64
CLDN17 (GeneID 26285)	1.37	0.82	0.6
FOXP1 (GeneID 27086)	0.89	0.68	0.76
RNF32 (GeneID 140545)	1	0.98	0.98
MICB (GeneID 4277)	0.87	0.86	0.99
TMCO2 (GeneID 127391)	0.95	0.61	0.64
SSBP4 (GeneID 170463)	0.83	0.44	0.53
HOXB8 (GeneID 3218)	0.88	0.5	0.57
HCAR1 (GeneID 27198)	0.76	0.75	0.99
NIT2 (GeneID 56954)	0.9	0.92	1.02
CAPRIN2 (GeneID 65981)	1	0.86	0.86
PLCB1 (GeneID 23236)	1	1.02	1.02
KCNN1 (GeneID 3780)	1.19	0.76	0.64
CFAP210 (GeneID 129881)	1.07	0.88	0.82
C10orf120 (GeneID 399814)	1.14	0.64	0.56
CHUK (GeneID 1147)	0.92	0.94	1.02
MBNL1 (GeneID 4154)	1.56	0.97	0.62
NPFF (GeneID 8620)	1.22	1	0.82
DEFB116 (GeneID 245930)	0.84	0.64	0.76
NDUFAF1 (GeneID 51103)	0.97	0.58	0.6
